US20240043528A1, “NANOBODY-OGA FUSIONS AND USES THEREOF” (President and Fellows of Harvard College, priority 2020, published 2024)

Tested on: GFP-Sp1
Test: Immunofluorescence imaging of subcellular localization of GFP-Sp1
Format: cell-based, human
Details: confocal imaging, HEK 293T cells

B1: fl-OGA: Full length OGA with a myc tag (SEQ ID NO: 1) (protein)
chain: MASMQKLISEEDLLMAMEARIRSTVQKESQATLEERESELSSNPAASAGASLEPPAAPAPGEDNPAGAGGAAVAGAAGGARRFLCGVVEGFYGRPWVMEQRKELFRRLQKWELNTYLYAPKDDYKHRMFWREMYSVEEAEQLMTLISAAREYEIEFIYAISPGLDITFSNPKEVSTLKRKLDQVSQFGCRSFALLFDDIDHNMCAADKEVFSSFAHAQVSITNEIYQYLGEPETFLFCPTEYCGTFCYPNVSQSPYLRTVGEKLLPGIEVLWTGPKVVSKEIPVESIEEVSKIIKRAPVIWDNIHANDYDQKRLFLGPYKGRSTELIPRLKGVLTNPNCEFEANYVAIHTLATWYKSNMNGVRKDVVMTDSEDSTVSIQIKLENEGSDEDIETDVLYSPQMALKLALTEWLQEFGVPHQYSSRQVAHSGAKASVVDGTPLVAAPSLNATTVVTTVYQEPIMSQGAALSGEPTTLTKEEEKKQPDEEPMDMVVEKQEETDHKNDNQILSEIVEAKMAEELKPMDTDKESIAESKSPEMSMQEDCISDIAPMQTDEQTNKEQFVPGPNEKPLYTAEPVTLEDLQLLADLFYLPYEHGPKGAQMLREFQWLRANSSVVSVNCKGKDSEKIEEWRSRAAKFEEMCGLVMGMFTRLSNCANRTILYDMYSYVWDIKSIMSMVKSFVQWLGCRSHSSAQFLIGDQEPWAFRGGLAGEFQRLLPIDGANDLFFQPPPLTPTSKVYTIRPYFPKDEASVYKICREMYDDGVGLPFQSQPDLIGDKLVGGLLSLSLDYCFVLEDEDGICGYALGTVDVTPFIKKCKISWIPFMQEKYTKPNGDKELSEAEKIMLSFHEEQEVLPETFLANFPSLIKMDIHKKVTDPSVAKSMMACLLSSLKANGSRGAFCEVRPDDKRILEFYSKLGCFEIAKMEGFPKDVVILGRSL
modifications: myc tag
subcellular localization of target protein GFP-Sp1: does not change nuclear localization of GFP-Sp1
